# Taken from: PubChem BioAssay AID720505 (Drosophila RNAi Screening Center, 2013)
# Purpose: 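Fly regulators or components of the CRAC channel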 (primary screen)
# System: Drosophila S2R+ cells
# Reagents: long dsRNA against Drosophila genes
# Conditions: thapsigargin (2 µM) in calcium-free buffer to empty internal stores, then 2 mM calcium added back
# Measurement: 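Fluo-4 signal in 384-well plates read on a FLIPR after thapsigargin (2 µM, calcium-free) store depletion and 2 mM calcium add-back; unnormalised mean endpoint per well; screen run twice, selected wells retested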
# Reading the numbers: calcium signal and retest calcium signal: higher = more calcium entry after store depletion
# Call rule: 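About 1500 genes called as lowering calcium entry, by varying amounts, judged against per-plate control wells with STIM1 as positive and Rho1 as negative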
# Meaning of the calls: active = called as lowering calcium entry; inactive = not called
# The screen tested about 20,000 reagents; this is a random part of those with a known target gene and a result. In the full data, about 2,100 (10%) were called active. 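Raw plate signals without normalisation; calls rest on control-based scores that were not deposited; replicate 2 separates called from uncalled poorly.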 No sequences are given here. Not given: the amount of reagent, the time to read-out.
predicted target,dsRNA,"calcium signal, replicate 1","calcium signal, replicate 2","retest calcium signal, replicate 1","retest calcium signal, replicate 2",Call
ergic53,DRSC11389,108,62.6,,,inactive
net,DRSC00309,169,119,,,inactive
CG6495,DRSC01993,91,125,,,inactive
CG43331,DRSC11671,94.3,121,,,inactive
CG31601,DRSC03678,120,7655,,,inactive
lncRNA:CR32690,DRSC22219,106,204,,,inactive
Cep135,DRSC10244,121,101,,,inactive
CG3288,DRSC11745,128,145,,,inactive
Tom20,DRSC10899,99.3,83.2,,,inactive
CG5532,DRSC04509,60.9,92.7,,,inactive
Cortactin,DRSC16612,174,233,,,inactive
toc,DRSC00169,79.2,150,,,inactive
toc,DRSC00171,58,98.7,,,active
toc,DRSC00842,119,187,,,inactive
png,DRSC18582,43.9,114,,,active
Sirt7,DRSC14294,68,92.5,,,inactive
CG33158,DRSC09708,86.3,133,,,inactive
CG33158,DRSC09709,114,128,,,inactive
CG33158,DRSC10438,81.8,166,,,inactive
CG6293,DRSC16011,122,100,,,inactive
Listericin,DRSC07334,107,138,,,inactive
fl(2)d,DRSC07620,122,205,,,inactive
CG6429,DRSC06986,84.4,81.3,,,inactive
Cyp4ac1,DRSC03302,109,195,115,108,inactive
CG14740,DRSC14960,124,129,,,inactive
LIMK1,DRSC19811,116,117,,,inactive
CG10041,DRSC14179,70.2,130,,,active
Sou,DRSC04356,196,98.5,,,inactive
CG30184,DRSC22277,115,244,,,inactive
Eglp4,DRSC04438,127,133,,,inactive
CG5928,DRSC18391,227,118,5273,156,inactive
Or33b,DRSC03387,78.7,115,,,inactive
CG6230,DRSC01989,76.8,84,,,inactive
CG33937 (retired record),DRSC15148,41.8,96.3,,,active
CG15601,DRSC19670,119,147,,,inactive
CG14100,DRSC10101,117,119,,,inactive
defl,DRSC10300,61.5,79.4,,,active
CG14118,DRSC10122,60.5,72.5,,,active
CG3625,DRSC00008,74.1,97.7,,,inactive
CG3625,DRSC00621,103,239,,,inactive

Entries above with an active call:
predicted target,dsRNA,"calcium signal, replicate 1","calcium signal, replicate 2","retest calcium signal, replicate 1","retest calcium signal, replicate 2",Call
toc,DRSC00171,58,98.7,,,active
png,DRSC18582,43.9,114,,,active
CG10041,DRSC14179,70.2,130,,,active
CG33937 (retired record),DRSC15148,41.8,96.3,,,active
defl,DRSC10300,61.5,79.4,,,active
CG14118,DRSC10122,60.5,72.5,,,active

Next entries follow:
predicted target,dsRNA,"calcium signal, replicate 1","calcium signal, replicate 2","retest calcium signal, replicate 1","retest calcium signal, replicate 2",Call
tra,DRSC11405,106,187,,,inactive
BORCS6,DRSC08514,85.5,94.3,,,inactive
Tgi,DRSC09793,101,80,,,inactive
Tgi,DRSC09794,54.9,88.3,,,active
CG11555,DRSC00315,172,143,,,inactive
CG7069,DRSC16188,155,270,,,inactive
Fib,DRSC04614,126,216,,,inactive
CG33792,DRSC05355,119,125,,,inactive
CG12362,DRSC09884,83.2,99.4,,,inactive
sisA,DRSC20374,55.7,124,,,active
Ubr1,DRSC20148,129,140,,,inactive
Vha14-1,DRSC07571,85.6,162,,,inactive
Usp12-46,DRSC16175,154,90.4,,,inactive
CG12099,DRSC08253,94,99.8,,,inactive
CG31013,DRSC16542,214,183,,,inactive
Osi2,DRSC12174,116,124,,,inactive
scw,DRSC01711,142,114,,,inactive
scw,DRSC21252,158,101,,,inactive
peb,DRSC18817,230,130,,,inactive
peb,DRSC23057,89.7,135,,,inactive
eIF3i,DRSC03464,56.5,108,,,active
Jhbp1,DRSC12167,112,145,,,inactive
Liprin-beta,DRSC09795,118,101,,,inactive
Liprin-beta,DRSC23339,90.1,131,,,inactive
mRpL14,DRSC18597,77.8,106,,,inactive
Gr98d,DRSC14571,102,94.1,,,inactive
Pdf,DRSC16786,99.8,154,,,inactive
CG15547,DRSC15085,179,147,,,inactive
CG31230,DRSC22130,107,103,,,inactive
Nepl13,DRSC15632,127,143,,,inactive
Mst77F,DRSC11871,136,112,,,inactive
CG12934,DRSC06247,123,118,,,inactive
CG10183,DRSC14203,155,81.6,,,inactive
CG2211,DRSC08559,110,186,,,inactive
Rheb,DRSC12148,83.7,119,,,inactive
I-2,DRSC11194,81.7,92.8,,,inactive
I-2,DRSC23300,177,171,,,inactive
PNKP,DRSC16512,123,93.2,,,inactive
Mco3,DRSC15926,280,157,,,inactive
Trax,DRSC15709,113,86.6,,,inactive
Vang,DRSC07570,116,193,,,inactive
Gr58b,DRSC04140,160,104,,,inactive
CG31460,DRSC14370,118,163,,,inactive
